Patent US4758555A, “Method for treating convulsions and epilepsy with organic copper compounds” (priority 1986, dated 1988)
At least one structure is not confirmed: it was looked up by name or label, or the drawing left a doubt.

Experiments:
Format in all cases: in vivo, male Carworth Farms #1 mice or Sprague-Dawley rats
[1] = Anticonvulsant activity, both or unspecified seizure models; settings: running text
[2] = Maximal Electroshock Seizure Test; settings: Table III
[3] = Subcutaneous Pentylenetetrazol (Metrazol) Seizure Threshold Test; settings: Table III; SC

Row | SMILES | Anticonvulsant activity (in words) [1] | Anticonvulsant activity, Maximal Electroshock (Phase I) ([2]; SC) | Anticonvulsant activity, Maximal Electroshock (Phase I) ([2]; IP) | Anticonvulsant activity, Metrazol (Phase I) [3]
1 | CC(=O)Oc1ccccc1C(=O)O [Aspirin, acetylsalicylate, reference compound] | inactive at 30, 100, 300 and 600 mg/kg in both seizure models at both times intervals, 30 minutes and 4 hours | – | – | –
2 | CC[C@H](C)[C@H](N)C(=O)[O-].CC[C@H](C)[C@H](N)C(=O)[O-].[Cu+2] [Cu(II)(L-isoleucinate)2] | – | I | – | –
3 | CC(C)C[C@H](N)C(=O)[O-].CC(C)C[C@H](N)C(=O)[O-].[Cu+2] [Cu(II)(L-leucinate)2] | – | I | I | I
4 | N[C@@H](Cc1c[nH]c2ccccc12)C(=O)[O-].N[C@@H](Cc1c[nH]c2ccccc12)C(=O)[O-].[Cu+2] [Cu(II)(L-tryptophanate)2] | – | – | I | –
